# Assay results published in paper PMC11806102.
# Sequences of proteins named here, by UniProt entry; tags and fusion partners are left off. Residues count along the entry.
# UniProt P08581, residues 25-1390: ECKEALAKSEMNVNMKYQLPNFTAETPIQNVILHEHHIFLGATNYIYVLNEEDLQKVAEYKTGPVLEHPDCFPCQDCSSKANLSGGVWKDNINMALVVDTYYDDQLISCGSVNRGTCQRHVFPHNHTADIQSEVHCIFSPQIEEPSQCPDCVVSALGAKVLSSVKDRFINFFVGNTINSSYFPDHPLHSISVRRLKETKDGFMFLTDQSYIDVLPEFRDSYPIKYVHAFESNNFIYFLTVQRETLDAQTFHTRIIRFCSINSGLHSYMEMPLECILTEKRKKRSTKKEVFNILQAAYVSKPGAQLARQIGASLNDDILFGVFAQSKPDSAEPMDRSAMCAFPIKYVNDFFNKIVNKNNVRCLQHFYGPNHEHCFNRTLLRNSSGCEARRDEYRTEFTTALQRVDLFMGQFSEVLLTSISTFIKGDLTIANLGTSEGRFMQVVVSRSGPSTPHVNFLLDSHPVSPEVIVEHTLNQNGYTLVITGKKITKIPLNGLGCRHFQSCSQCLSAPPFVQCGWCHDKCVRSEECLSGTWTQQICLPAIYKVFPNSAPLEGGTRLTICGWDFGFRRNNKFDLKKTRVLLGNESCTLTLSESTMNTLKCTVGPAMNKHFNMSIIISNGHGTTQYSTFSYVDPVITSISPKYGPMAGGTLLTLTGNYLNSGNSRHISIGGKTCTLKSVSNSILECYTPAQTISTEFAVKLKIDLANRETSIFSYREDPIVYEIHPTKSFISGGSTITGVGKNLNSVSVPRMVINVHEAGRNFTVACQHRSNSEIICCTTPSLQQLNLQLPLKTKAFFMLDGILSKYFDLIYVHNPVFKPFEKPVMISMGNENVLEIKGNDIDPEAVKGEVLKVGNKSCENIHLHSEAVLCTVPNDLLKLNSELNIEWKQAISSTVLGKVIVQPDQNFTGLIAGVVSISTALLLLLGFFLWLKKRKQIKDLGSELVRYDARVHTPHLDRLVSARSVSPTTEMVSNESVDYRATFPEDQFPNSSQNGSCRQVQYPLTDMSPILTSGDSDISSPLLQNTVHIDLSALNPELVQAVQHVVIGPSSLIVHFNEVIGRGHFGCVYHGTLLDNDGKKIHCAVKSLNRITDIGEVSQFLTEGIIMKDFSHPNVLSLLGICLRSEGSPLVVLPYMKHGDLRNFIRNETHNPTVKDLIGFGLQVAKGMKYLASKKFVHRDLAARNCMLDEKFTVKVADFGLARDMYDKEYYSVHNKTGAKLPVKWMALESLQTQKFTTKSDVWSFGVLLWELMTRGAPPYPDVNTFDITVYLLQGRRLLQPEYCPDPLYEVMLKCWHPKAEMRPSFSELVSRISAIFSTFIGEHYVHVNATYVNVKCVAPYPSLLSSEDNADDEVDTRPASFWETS
# UniProt P14210, residues 32-728: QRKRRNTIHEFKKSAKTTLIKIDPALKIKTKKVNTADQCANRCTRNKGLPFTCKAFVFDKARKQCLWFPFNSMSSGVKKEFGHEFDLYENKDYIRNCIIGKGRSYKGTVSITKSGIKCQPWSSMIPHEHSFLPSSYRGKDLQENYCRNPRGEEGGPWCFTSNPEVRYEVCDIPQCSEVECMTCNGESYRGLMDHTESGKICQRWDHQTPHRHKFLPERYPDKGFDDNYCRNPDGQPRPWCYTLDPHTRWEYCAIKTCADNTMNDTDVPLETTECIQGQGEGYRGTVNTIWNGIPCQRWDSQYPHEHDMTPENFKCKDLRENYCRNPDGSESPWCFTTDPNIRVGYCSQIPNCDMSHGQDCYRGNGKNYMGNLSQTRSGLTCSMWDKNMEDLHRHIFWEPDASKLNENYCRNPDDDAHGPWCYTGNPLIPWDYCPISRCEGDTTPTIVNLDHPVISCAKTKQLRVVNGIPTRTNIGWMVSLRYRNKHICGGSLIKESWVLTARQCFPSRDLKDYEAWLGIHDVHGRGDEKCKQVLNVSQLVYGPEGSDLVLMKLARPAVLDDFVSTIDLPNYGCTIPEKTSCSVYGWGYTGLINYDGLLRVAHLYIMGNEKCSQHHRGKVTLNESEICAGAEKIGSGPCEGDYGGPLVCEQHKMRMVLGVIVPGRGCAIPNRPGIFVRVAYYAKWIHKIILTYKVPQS
# No constants are given. Whether binding was seen depends on the method and setting. In cells and extracts the contact can be indirect. Some results given as binding are weak or reduced against the parent protein; the word gives no strength.
# B1: Trefoil factor 3 (protein, UniProt Q07654 22-80)
# chain: EEYVGLSANQCAVPAKDRVDCGYPHVTPKECNNRGCCFDSRIPGVPWCFKPLQEAECTF
# Target: c-MET (human (endogenous in MDA-MB-361)) (UniProt P08581)
# Experiment: co-IP; whole-cell lysates of MDA-MB-361 cells; 5 ug primary or anti-IgG antibody overnight at 4 C; protein G Dynabeads; washed three times with 150 mM NaCl, 20 mM Tris pH 8.0, 1% NP-40; SDS-PAGE immunoblotting
row,Molecule,binding
1,hepatocyte growth factor (from UniProt P14210 32-728) (ligand),binds
2,B1,no binding
